Here are results for 2 molecules from publication PMC7160111.

Chains of the proteins cited; added tags and fusions are not shown. Lines headed by an entry give the natural chain unless they say otherwise; changes in a name come on top.
UniProt P38634: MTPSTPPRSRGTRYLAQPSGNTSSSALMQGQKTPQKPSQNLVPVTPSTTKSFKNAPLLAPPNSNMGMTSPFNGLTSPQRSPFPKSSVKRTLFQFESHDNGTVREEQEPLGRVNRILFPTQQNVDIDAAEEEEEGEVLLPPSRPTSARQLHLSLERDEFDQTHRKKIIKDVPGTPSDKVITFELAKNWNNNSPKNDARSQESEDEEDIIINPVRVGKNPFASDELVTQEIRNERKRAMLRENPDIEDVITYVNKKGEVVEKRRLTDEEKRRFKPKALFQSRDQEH
UniProt P00546: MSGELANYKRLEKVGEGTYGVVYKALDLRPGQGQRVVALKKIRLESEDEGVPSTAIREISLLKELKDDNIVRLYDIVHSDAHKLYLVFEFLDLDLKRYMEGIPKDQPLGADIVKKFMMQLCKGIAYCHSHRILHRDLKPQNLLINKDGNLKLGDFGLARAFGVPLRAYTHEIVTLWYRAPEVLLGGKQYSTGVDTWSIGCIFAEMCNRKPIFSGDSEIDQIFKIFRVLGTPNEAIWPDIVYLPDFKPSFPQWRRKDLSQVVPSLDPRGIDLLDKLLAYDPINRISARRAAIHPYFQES

Results are given in words; binding and its absence hold for the method and conditions named. For some assays here: In cells and extracts the contact can be indirect. Some binding calls cover weakened binding; strength is not graded here.

In one assay the target is T1, Clb5–TAP (S. cerevisiae) (UniProt P30283).
T1 sequence: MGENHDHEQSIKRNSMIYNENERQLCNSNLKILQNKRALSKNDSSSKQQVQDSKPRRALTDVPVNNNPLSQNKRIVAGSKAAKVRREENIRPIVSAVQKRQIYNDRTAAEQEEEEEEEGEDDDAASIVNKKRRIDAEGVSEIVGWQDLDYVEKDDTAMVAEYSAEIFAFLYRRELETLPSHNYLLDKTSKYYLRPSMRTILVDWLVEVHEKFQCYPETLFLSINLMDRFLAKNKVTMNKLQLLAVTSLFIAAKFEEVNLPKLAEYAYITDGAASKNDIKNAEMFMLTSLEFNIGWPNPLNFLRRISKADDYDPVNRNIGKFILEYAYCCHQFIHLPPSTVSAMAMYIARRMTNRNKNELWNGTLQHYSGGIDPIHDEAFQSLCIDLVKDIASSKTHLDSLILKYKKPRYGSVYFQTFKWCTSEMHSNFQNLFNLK
Put plainly: tandem affinity purification; cyclins copurified as stoichiometric complexes with active Cdk1 from a Δsic1 yeast strain.

Assay [1] deals with T173A–Sic1–6HA (S. cerevisiae) (UniProt P38634). Description: co-IP; Clb5–TAP overexpressed (GAL1 promoter, 2-μm plasmid) in strains with endogenously expressed Sic1–6HA or T173A–Sic1–6HA; purified by the TAP tag from 5–7 g of cell pellet; final eluate blotted with anti-HA and anti-Cks1.

Regarding “Cdk1 (from UniProt P00546 1-298) (enzyme)”, the binding entry in the assay with Clb5–TAP (S. cerevisiae) was “binds”.

B1: Cks1 (protein, UniProt P20486 1-150)
chain: MYHHYHAFQGRKLTDQERARVLEFQDSIHYSPRYSDDNYEYRHVMLPKAMLKVIPSDYFNSEVGTLRILTEDEWRGLGITQSLGWEHYECHAPEPHILLFKRPLNYEAELRAATAAAQQQQQQQQQQQQQQQQHQTQSISNDMQVPPQIS
Consider B1, for which the binding result in assay [1] was “no binding”.
